Measured values reported in paper PMC7556880.
No constants are given. Whether binding was seen depends on the method and setting. In cells and extracts the contact can be indirect. Some results given as binding are weak or reduced against the parent protein; the word gives no strength.

By UniProt entry, the sequences of proteins in these tests, tags left out.
UniProt Q61039: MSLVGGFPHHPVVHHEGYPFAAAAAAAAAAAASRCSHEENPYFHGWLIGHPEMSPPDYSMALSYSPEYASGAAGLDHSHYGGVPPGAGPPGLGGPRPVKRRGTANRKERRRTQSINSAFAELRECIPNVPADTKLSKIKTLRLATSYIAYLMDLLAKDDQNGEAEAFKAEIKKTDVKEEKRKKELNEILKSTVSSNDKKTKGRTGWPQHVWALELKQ
UniProt Q61602: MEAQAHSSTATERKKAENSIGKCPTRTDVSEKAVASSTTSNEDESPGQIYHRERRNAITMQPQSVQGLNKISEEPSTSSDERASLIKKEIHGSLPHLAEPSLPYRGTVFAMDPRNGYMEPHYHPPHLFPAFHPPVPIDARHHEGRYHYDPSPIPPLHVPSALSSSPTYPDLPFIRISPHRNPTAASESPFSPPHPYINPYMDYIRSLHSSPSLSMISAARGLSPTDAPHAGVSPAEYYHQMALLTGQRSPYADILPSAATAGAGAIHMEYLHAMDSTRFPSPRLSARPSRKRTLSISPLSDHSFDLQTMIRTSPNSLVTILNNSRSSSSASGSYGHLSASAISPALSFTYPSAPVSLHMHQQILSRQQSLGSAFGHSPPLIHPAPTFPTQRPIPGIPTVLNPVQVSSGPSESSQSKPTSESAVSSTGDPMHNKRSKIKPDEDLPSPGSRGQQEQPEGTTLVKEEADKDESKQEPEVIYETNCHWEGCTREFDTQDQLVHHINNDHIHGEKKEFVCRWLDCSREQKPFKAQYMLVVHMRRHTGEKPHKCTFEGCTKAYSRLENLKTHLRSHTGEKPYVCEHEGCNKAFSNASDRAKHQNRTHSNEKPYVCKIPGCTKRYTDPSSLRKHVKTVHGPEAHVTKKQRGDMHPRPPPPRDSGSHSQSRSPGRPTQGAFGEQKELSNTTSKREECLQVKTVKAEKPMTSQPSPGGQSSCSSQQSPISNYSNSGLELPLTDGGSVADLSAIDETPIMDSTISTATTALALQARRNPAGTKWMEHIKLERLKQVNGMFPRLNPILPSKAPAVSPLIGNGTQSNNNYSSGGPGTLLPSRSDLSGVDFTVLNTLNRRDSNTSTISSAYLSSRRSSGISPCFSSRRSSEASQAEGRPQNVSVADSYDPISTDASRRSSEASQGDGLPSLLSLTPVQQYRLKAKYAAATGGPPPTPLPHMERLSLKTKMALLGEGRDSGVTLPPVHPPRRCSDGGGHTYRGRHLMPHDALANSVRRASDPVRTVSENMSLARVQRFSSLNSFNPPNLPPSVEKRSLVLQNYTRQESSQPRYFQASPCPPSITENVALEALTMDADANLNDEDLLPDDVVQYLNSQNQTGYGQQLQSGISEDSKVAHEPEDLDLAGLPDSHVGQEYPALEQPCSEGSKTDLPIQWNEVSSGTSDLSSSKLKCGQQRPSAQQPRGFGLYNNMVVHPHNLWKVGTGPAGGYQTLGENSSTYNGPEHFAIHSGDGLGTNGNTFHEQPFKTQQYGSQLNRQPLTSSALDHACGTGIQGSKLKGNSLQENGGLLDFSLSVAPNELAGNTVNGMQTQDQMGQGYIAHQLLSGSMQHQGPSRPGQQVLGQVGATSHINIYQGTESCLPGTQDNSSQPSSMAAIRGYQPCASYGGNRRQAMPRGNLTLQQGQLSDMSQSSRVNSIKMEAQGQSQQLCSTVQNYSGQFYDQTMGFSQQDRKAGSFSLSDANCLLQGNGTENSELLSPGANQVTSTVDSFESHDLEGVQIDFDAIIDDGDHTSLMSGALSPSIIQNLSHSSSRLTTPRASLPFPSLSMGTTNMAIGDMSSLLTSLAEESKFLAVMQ
UniProt Q0VGT2: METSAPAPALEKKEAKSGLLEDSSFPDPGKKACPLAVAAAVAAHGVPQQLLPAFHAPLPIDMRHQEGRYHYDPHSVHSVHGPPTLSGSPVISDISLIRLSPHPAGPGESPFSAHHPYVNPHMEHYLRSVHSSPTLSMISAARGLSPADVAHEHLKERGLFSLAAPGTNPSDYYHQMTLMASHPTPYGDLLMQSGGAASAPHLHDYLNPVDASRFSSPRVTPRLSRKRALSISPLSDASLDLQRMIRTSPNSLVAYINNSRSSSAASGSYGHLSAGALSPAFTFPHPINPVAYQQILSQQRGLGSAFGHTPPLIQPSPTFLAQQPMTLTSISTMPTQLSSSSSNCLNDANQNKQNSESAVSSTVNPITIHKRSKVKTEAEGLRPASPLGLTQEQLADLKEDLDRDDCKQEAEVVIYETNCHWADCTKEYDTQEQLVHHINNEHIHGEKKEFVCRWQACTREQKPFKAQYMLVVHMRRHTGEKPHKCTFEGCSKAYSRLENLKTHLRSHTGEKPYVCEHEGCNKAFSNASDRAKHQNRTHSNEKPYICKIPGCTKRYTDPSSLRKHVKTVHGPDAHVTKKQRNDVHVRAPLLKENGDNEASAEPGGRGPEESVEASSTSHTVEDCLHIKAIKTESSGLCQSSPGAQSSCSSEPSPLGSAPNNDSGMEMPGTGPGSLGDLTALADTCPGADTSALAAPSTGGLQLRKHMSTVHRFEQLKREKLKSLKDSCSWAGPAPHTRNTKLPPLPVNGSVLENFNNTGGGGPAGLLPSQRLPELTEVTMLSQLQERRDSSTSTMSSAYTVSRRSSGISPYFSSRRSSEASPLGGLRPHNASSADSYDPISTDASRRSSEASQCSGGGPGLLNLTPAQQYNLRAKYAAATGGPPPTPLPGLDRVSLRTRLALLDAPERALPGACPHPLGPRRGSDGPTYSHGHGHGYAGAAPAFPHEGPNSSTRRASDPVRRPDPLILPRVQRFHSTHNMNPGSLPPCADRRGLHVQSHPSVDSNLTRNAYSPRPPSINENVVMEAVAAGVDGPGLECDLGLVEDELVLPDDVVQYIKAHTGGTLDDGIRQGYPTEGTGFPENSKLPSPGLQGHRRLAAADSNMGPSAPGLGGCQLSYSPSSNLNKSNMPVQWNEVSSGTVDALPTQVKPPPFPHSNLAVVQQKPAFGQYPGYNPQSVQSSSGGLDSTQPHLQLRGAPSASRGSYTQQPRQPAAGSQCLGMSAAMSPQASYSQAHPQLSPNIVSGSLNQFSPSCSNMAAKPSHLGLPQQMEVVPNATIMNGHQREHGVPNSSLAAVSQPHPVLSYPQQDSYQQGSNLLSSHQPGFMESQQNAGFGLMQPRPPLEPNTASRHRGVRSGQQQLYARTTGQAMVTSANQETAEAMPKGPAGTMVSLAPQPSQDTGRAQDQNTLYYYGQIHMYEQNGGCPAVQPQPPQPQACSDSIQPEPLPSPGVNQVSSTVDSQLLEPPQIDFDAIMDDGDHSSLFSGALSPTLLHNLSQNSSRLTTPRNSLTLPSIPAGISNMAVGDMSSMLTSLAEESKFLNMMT

Target: Hand2 (mouse (endogenous in E10.5 MNPs)) (UniProt Q61039)
Experiment: co-IP; endogenous proteins; lysate of pooled E10.5 CD-1 mandibular prominences in RIPA buffer; precipitated with goat polyclonal anti-Hand2 or control goat IgG overnight at 4C, Dynabeads Protein G, three washes in RIPA; Western blot

Substance | binding
Gli3, full-length isoform (from UniProt Q61602 1-1583) | binds
Gli2, full-length isoform (from UniProt Q0VGT2 1-1544) | no binding
